{"source": "the supplement of paper PMC10077471", "note": "The full ranking holds about 1,900 compounds; the median of “excess over highest single agent (ExcessHSA) synergy score, 6x6 matrix” is about -83, and the lowest 2% start at about -370. The list shows a part of the results."}
{"test_system": "NCI-H446", "assay": "excess over highest single agent (ExcessHSA) synergy score, 6x6 matrix; higher = less synergy (more negative = stronger synergy)", "conditions": "72 h; CellTiter-Glo viability"}
{"smiles": "COc1ccc(CC2SC(=O)NC2=O)cc1C(=O)NCc1ccc(C(F)(F)F)cc1", "note": "(configuration not stated) + Cc1sc2c(c1C)C(c1ccc(Cl)cc1)=N[C@@H](CC(=O)OC(C)(C)C)c1nnc(C)n1-2 [NCGC00250412-19]", "excess over highest single agent": 97.6}
{"smiles": "CCOc1cc(N2CCC(O)CC2)ccc1Nc1ncc2c(n1)N(C)c1ccccc1C(=O)N2C", "note": "+ Cc1sc2c(c1C)C(c1ccc(Cl)cc1)=N[C@@H](CC(=O)OC(C)(C)C)c1nnc(C)n1-2 [NCGC00250412-19]", "excess over highest single agent": 136}
{"smiles": "Cc1ccc(NC(=O)Nc2cc(C(F)(F)F)ccc2F)cc1Nc1ccc2c(c1)NC(=O)/C2=C\\c1ccc[nH]1", "note": "+ Cc1sc2c(c1C)C(c1ccc(Cl)cc1)=N[C@@H](CC(=O)OC(C)(C)C)c1nnc(C)n1-2 [NCGC00250412-19]", "excess over highest single agent": -97.6}
{"smiles": "CNC(=O)c1ccccc1Sc1ccc2c(/C=C/c3ccccn3)n[nH]c2c1", "note": "+ Cc1sc2c(c1C)C(c1ccc(Cl)cc1)=N[C@@H](CC(=O)OC(C)(C)C)c1nnc(C)n1-2 [NCGC00250412-19]", "excess over highest single agent": -194}
{"smiles": "C[C@]12CC[C@H](O)CC1=CC[C@@H]1[C@@H]2CC[C@]2(C)C(=O)CC[C@@H]12", "note": "+ Cc1sc2c(c1C)C(c1ccc(Cl)cc1)=N[C@@H](CC(=O)OC(C)(C)C)c1nnc(C)n1-2 [NCGC00250412-19]", "excess over highest single agent": -70.9}
{"smiles": "CCn1cc(C(=O)O)c(=O)c2cc(F)c(N3CCNCC3)cc21", "note": "+ Cc1sc2c(c1C)C(c1ccc(Cl)cc1)=N[C@@H](CC(=O)OC(C)(C)C)c1nnc(C)n1-2 [NCGC00250412-19]", "excess over highest single agent": -156}
{"smiles": "COc1ccc(C(C)=O)c(O)c1", "note": "+ Cc1sc2c(c1C)C(c1ccc(Cl)cc1)=N[C@@H](CC(=O)OC(C)(C)C)c1nnc(C)n1-2 [NCGC00250412-19]", "excess over highest single agent": -66.4}
{"smiles": "COc1ccc(-n2nc(C(N)=O)c3c2C(=O)N(c2ccc(N4CCCCC4=O)cc2)CC3)cc1", "note": "+ Cc1sc2c(c1C)C(c1ccc(Cl)cc1)=N[C@@H](CC(=O)OC(C)(C)C)c1nnc(C)n1-2 [NCGC00250412-19]", "excess over highest single agent": 97.6}
{"smiles": "COc1c(O)cc2c(c1O)[C@@H]1O[C@H](CO)[C@@H](O)[C@H](O)[C@H]1OC2=O", "note": "+ Cc1sc2c(c1C)C(c1ccc(Cl)cc1)=N[C@@H](CC(=O)OC(C)(C)C)c1nnc(C)n1-2 [NCGC00250412-19]", "excess over highest single agent": -61.3}
{"smiles": "Nc1cccc(-c2cc3c(Oc4cccc(O)c4)ncnc3[nH]2)c1", "note": "+ Cc1sc2c(c1C)C(c1ccc(Cl)cc1)=N[C@@H](CC(=O)OC(C)(C)C)c1nnc(C)n1-2 [NCGC00250412-19]", "excess over highest single agent": 30.5}
{"smiles": "CC1C=CC=CCCC=CC=CC=CC=CC(OC2OC(C)C(O)C(N)C2O)CC2OC(O)(CC(O)C(O)CCC(O)CC(O)CC(O)CC(=O)OC(C)C(C)C1O)CC(O)C2C(=O)O", "note": "(configuration not stated) + Cc1sc2c(c1C)C(c1ccc(Cl)cc1)=N[C@@H](CC(=O)OC(C)(C)C)c1nnc(C)n1-2 [NCGC00250412-19]", "excess over highest single agent": 20.1}
{"smiles": "COc1ccccc1OCCNCC(O)COc1cccc2[nH]c3ccccc3c12", "note": "(configuration not stated) + Cc1sc2c(c1C)C(c1ccc(Cl)cc1)=N[C@@H](CC(=O)OC(C)(C)C)c1nnc(C)n1-2 [NCGC00250412-19]", "excess over highest single agent": -202}
{"smiles": "CCC(CC)[C@H](NC(C)=O)[C@@H]1[C@H](O)[C@@H](C(=O)O)C[C@H]1NC(=N)N", "note": "+ Cc1sc2c(c1C)C(c1ccc(Cl)cc1)=N[C@@H](CC(=O)OC(C)(C)C)c1nnc(C)n1-2 [NCGC00250412-19]", "excess over highest single agent": -71.5}
{"smiles": "CC(C)c1nc(CN(C)C(=O)N[C@H](C(=O)N[C@@H](Cc2ccccc2)C[C@H](O)[C@H](Cc2ccccc2)NC(=O)OCc2cncs2)C(C)C)cs1", "note": "+ Cc1sc2c(c1C)C(c1ccc(Cl)cc1)=N[C@@H](CC(=O)OC(C)(C)C)c1nnc(C)n1-2 [NCGC00250412-19]", "excess over highest single agent": -283}
{"smiles": "COc1ccc2c(c1OC)CN1CCc3cc4c(cc3C1C2)OCO4", "note": "(configuration not stated) + Cc1sc2c(c1C)C(c1ccc(Cl)cc1)=N[C@@H](CC(=O)OC(C)(C)C)c1nnc(C)n1-2 [NCGC00250412-19]", "excess over highest single agent": -109}
{"smiles": "O=C(NCC1CCCCN1)c1cc(OCC(F)(F)F)ccc1OCC(F)(F)F", "note": "(configuration not stated) + Cc1sc2c(c1C)C(c1ccc(Cl)cc1)=N[C@@H](CC(=O)OC(C)(C)C)c1nnc(C)n1-2 [NCGC00250412-19]", "excess over highest single agent": 23.3}
{"smiles": "COc1cc(N2CCC(N3CCN(C)CC3)CC2)ccc1Nc1ncc(Cl)c(Nc2ccccc2S(=O)(=O)C(C)C)n1", "note": "+ Cc1sc2c(c1C)C(c1ccc(Cl)cc1)=N[C@@H](CC(=O)OC(C)(C)C)c1nnc(C)n1-2 [NCGC00250412-19]", "excess over highest single agent": -237}
{"smiles": "C=CCON=C(C[C@H]1O[C@@H]2O[C@]3(C)CC[C@@H]4[C@H](C)CC[C@@H]([C@H]1C)[C@@]24OO3)[C@H]1O[C@@H]2O[C@]3(C)CC[C@H]4[C@H](C)CC[C@@H]([C@@H]1C)[C@@]24OO3", "note": "+ Cc1sc2c(c1C)C(c1ccc(Cl)cc1)=N[C@@H](CC(=O)OC(C)(C)C)c1nnc(C)n1-2 [NCGC00250412-19]", "excess over highest single agent": -427}
{"smiles": "C[C@@H](O)[C@H]1C(=O)N2C(C(=O)OCOC(=O)C(C)(C)C)=C(SC3CN(C4=NCCS4)C3)[C@H](C)[C@H]12", "note": "+ Cc1sc2c(c1C)C(c1ccc(Cl)cc1)=N[C@@H](CC(=O)OC(C)(C)C)c1nnc(C)n1-2 [NCGC00250412-19]", "excess over highest single agent": -195}
{"smiles": "O=C(Nc1cc(Cl)cc2c1[nH]c1cnccc12)c1cccnc1", "note": "+ Cc1sc2c(c1C)C(c1ccc(Cl)cc1)=N[C@@H](CC(=O)OC(C)(C)C)c1nnc(C)n1-2 [NCGC00250412-19]", "excess over highest single agent": -175}
{"smiles": "CC(C)(C)NC(=O)Nc1cccc(Nc2ncc(F)c(NC(C)(C)CO)n2)c1", "note": "+ Cc1sc2c(c1C)C(c1ccc(Cl)cc1)=N[C@@H](CC(=O)OC(C)(C)C)c1nnc(C)n1-2 [NCGC00250412-19]", "excess over highest single agent": -210}
{"smiles": "S=P(N1CC1)(N1CC1)N1CC1", "note": "+ Cc1sc2c(c1C)C(c1ccc(Cl)cc1)=N[C@@H](CC(=O)OC(C)(C)C)c1nnc(C)n1-2 [NCGC00250412-19]", "excess over highest single agent": -19.4}
{"smiles": "CCCS(=O)(=O)Nc1ccc(F)c(C(=O)c2c[nH]c3ncc(Cl)cc23)c1F", "note": "+ Cc1sc2c(c1C)C(c1ccc(Cl)cc1)=N[C@@H](CC(=O)OC(C)(C)C)c1nnc(C)n1-2 [NCGC00250412-19]", "excess over highest single agent": -97.1}
{"smiles": "CCN1CCCC1CNC(=O)c1cc(S(=O)(=O)CC)c(N)cc1OC", "note": "(configuration not stated) + Cc1sc2c(c1C)C(c1ccc(Cl)cc1)=N[C@@H](CC(=O)OC(C)(C)C)c1nnc(C)n1-2 [NCGC00250412-19]", "excess over highest single agent": -64.6}
{"smiles": "Nc1nc(N)nc(-c2cc(Cl)ccc2Cl)n1", "note": "+ Cc1sc2c(c1C)C(c1ccc(Cl)cc1)=N[C@@H](CC(=O)OC(C)(C)C)c1nnc(C)n1-2 [NCGC00250412-19]", "excess over highest single agent": -70.3}
{"smiles": "CNC(=O)CN1CCC(Oc2cc3c(Nc4cccc(Cl)c4F)ncnc3cc2OC)CC1", "note": "+ Cc1sc2c(c1C)C(c1ccc(Cl)cc1)=N[C@@H](CC(=O)OC(C)(C)C)c1nnc(C)n1-2 [NCGC00250412-19]", "excess over highest single agent": 36.5}
{"smiles": "Nc1ncnc2c1c(-c1cccc(OCc3ccccc3)c1)cn2C1CC(CN2CCCC2)C1", "note": "(configuration not stated) + Cc1sc2c(c1C)C(c1ccc(Cl)cc1)=N[C@@H](CC(=O)OC(C)(C)C)c1nnc(C)n1-2 [NCGC00250412-19]", "excess over highest single agent": -89.7}
{"smiles": "O=C(Nc1cccc(Cl)c1)Nc1ncc(CCNc2ncnc3ccsc23)s1", "note": "+ Cc1sc2c(c1C)C(c1ccc(Cl)cc1)=N[C@@H](CC(=O)OC(C)(C)C)c1nnc(C)n1-2 [NCGC00250412-19]", "excess over highest single agent": -121}
{"smiles": "CNC(=O)c1ccc(N2C(=S)N(c3ccc(C#N)c(C(F)(F)F)c3)C(=O)C23CCC3)cc1F", "note": "+ Cc1sc2c(c1C)C(c1ccc(Cl)cc1)=N[C@@H](CC(=O)OC(C)(C)C)c1nnc(C)n1-2 [NCGC00250412-19]", "excess over highest single agent": -51.1}
{"smiles": "CN(C)c1ccc(C2Nc3ccc4ccccc4c3C3=C2C(=O)CC(C)(C)C3)cc1Br", "note": "(configuration not stated) + Cc1sc2c(c1C)C(c1ccc(Cl)cc1)=N[C@@H](CC(=O)OC(C)(C)C)c1nnc(C)n1-2 [NCGC00250412-19]", "excess over highest single agent": -30.1}
{"smiles": "O=S(=O)(N=Cc1c(O)ccc2ccccc12)c1cccs1", "note": "+ Cc1sc2c(c1C)C(c1ccc(Cl)cc1)=N[C@@H](CC(=O)OC(C)(C)C)c1nnc(C)n1-2 [NCGC00250412-19]", "excess over highest single agent": -64.2}
{"smiles": "Fc1ccc(CNc2ncnc3ccc(F)cc23)cc1", "note": "+ Cc1sc2c(c1C)C(c1ccc(Cl)cc1)=N[C@@H](CC(=O)OC(C)(C)C)c1nnc(C)n1-2 [NCGC00250412-19]", "excess over highest single agent": 121}
{"smiles": "OC[C@H]1OC(O)C[C@@H](O)[C@@H]1O", "note": "(some centres not stated) + Cc1sc2c(c1C)C(c1ccc(Cl)cc1)=N[C@@H](CC(=O)OC(C)(C)C)c1nnc(C)n1-2 [NCGC00250412-19]", "excess over highest single agent": -201}
{"smiles": "COc1cc2ncnc(Nc3cc(Br)c(O)c(Br)c3)c2cc1OC", "note": "+ Cc1sc2c(c1C)C(c1ccc(Cl)cc1)=N[C@@H](CC(=O)OC(C)(C)C)c1nnc(C)n1-2 [NCGC00250412-19]", "excess over highest single agent": -207}
{"smiles": "CO[C@H]1C[C@@H]2CC[C@@H](C)[C@@](O)(O2)C(=O)C(=O)N2CCCC[C@H]2C(=O)O[C@H]([C@H](C)C[C@@H]2CC[C@@H](OP(C)(C)=O)[C@H](OC)C2)CC(=O)[C@H](C)/C=C(\\C)[C@@H](O)[C@@H](OC)C(=O)[C@H](C)C[C@H](C)/C=C/C=C/C=C/1C", "note": "+ Cc1sc2c(c1C)C(c1ccc(Cl)cc1)=N[C@@H](CC(=O)OC(C)(C)C)c1nnc(C)n1-2 [NCGC00250412-19]", "excess over highest single agent": -543}
{"smiles": "CC(C)(C)NCC(O)c1ccc(O)c(CO)c1", "note": "(configuration not stated) + Cc1sc2c(c1C)C(c1ccc(Cl)cc1)=N[C@@H](CC(=O)OC(C)(C)C)c1nnc(C)n1-2 [NCGC00250412-19]", "excess over highest single agent": -52.6}
{"smiles": "C#CCN(C)CC1=Cc2ccccc2Oc2ccccc21", "note": "+ Cc1sc2c(c1C)C(c1ccc(Cl)cc1)=N[C@@H](CC(=O)OC(C)(C)C)c1nnc(C)n1-2 [NCGC00250412-19]", "excess over highest single agent": -204}
